Test results published in patent publication US7790400B2, “Delta-9-tetrahydrocannabinol detection method” (Concateno UK Limited, priority 2004, dated 2010).
Some results were stated once for a whole list of compounds, not compound by compound. For at least one compound, name, drawing or mass did not settle the structure.

System: gold-labelled mouse monoclonal anti-THC antibody
Test: Lateral flow immunochromatography test for cannabis, immobilised BSA-CAN (5-pentylresorcinol/BSA) conjugate, spiked oral fluid, Cozart Rapiscan reader
Conditions: 5-pentylresorcinol conjugate with commercial anti-THC antibody

**Q.** How did the “Detectable level by competitive immunoassay” value turn out when CCCCCc1cc(O)c2c(c1)OC(C)(C)[C@@H]1CCC(CO)=C[C@@H]21 [THC—OH, 11-hydroxy-delta-9-THC] was run?
**A.** Its value is at most 20 ng/mL.
